From article PMC5290461
These are yes or no findings as the source states them, for the method shown. Values belong to the substance of their own block, whether it stands above or below them.

Protein sequences, listed by entry. Tags and fused reporters are not part of them. Lines headed by an entry give the natural chain unless they say otherwise; changes in a name come on top. Chains listed by the source or under a name are the forms on record and can include a tag or linker. Residues count along the entry.
His-tagged talin1(1-446) WT (Q9Y490, residues 1-446): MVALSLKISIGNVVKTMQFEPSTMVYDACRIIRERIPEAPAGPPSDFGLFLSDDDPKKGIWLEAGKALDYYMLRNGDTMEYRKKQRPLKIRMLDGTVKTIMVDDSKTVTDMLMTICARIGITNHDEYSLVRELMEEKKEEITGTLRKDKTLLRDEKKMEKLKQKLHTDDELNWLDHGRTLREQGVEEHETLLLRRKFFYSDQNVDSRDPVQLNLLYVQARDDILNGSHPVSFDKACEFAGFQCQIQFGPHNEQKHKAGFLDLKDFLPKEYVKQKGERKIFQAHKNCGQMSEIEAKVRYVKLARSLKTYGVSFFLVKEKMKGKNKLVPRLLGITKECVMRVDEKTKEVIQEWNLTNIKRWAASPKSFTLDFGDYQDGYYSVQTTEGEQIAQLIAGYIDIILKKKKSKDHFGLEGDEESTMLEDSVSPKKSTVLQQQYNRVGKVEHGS
His-tagged talin1(1-446) C336S (Q9Y490, form named): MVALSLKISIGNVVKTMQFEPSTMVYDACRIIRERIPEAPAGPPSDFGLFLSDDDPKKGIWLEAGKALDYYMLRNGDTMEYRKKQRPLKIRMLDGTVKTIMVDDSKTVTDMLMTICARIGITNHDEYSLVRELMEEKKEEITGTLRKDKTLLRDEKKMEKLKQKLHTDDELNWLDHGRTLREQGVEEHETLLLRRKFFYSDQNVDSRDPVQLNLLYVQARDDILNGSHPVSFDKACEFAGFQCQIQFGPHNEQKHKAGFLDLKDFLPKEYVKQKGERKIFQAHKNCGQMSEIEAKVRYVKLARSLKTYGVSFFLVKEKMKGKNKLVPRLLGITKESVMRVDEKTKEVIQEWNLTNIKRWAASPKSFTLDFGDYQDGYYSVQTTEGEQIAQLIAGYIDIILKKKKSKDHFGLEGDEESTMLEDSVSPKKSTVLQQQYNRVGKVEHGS
His-tagged talin2(1-449) WT (Q9Y4G6, residues 1-449): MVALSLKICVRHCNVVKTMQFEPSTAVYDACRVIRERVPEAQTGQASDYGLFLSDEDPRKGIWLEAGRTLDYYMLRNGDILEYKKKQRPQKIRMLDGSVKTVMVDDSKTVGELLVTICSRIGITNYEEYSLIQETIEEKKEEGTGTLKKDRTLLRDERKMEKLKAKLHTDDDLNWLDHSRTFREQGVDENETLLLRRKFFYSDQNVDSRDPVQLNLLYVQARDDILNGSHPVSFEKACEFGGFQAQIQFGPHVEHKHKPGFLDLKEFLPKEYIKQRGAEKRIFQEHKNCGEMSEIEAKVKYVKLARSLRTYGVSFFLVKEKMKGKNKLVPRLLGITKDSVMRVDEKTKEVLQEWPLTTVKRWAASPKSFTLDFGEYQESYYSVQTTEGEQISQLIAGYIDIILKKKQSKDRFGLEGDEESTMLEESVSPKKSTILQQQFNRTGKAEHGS
His-tagged talin2(1-449) S339C (Q9Y4G6, form named): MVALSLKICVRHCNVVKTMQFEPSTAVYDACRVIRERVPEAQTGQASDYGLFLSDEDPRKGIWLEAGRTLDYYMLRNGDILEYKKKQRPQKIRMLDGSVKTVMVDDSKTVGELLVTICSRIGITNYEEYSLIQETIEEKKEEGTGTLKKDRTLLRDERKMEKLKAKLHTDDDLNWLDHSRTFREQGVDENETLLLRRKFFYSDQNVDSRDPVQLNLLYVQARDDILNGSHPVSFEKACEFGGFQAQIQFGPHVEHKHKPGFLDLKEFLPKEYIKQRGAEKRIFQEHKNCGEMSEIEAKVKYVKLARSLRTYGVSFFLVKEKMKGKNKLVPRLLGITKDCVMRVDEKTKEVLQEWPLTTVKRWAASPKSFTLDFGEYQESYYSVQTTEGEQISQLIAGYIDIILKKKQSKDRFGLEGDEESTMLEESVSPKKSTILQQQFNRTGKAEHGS

What was measured:
Assay in all cases: SEC-MALS; gel filtration chromatography combined with a static light scattering detector; purified His-tagged talin heads; both purified
[1] = target: His-tagged talin1(1-446) C336S (human) (UniProt Q9Y490)
[2] = target: His-tagged talin1(1-446) WT (human) (UniProt Q9Y490)
[3] = target: His-tagged talin2(1-449) S339C (human) (UniProt Q9Y4G6)
[4] = target: His-tagged talin2(1-449) WT (human) (UniProt Q9Y4G6)

binding [1]: no binding
Substance: His-tagged talin1(1-446) C336S (from UniProt Q9Y490 1-446) (domain or fragment)

binding [2]: no binding
Substance: His-tagged talin1(1-446) WT (from UniProt Q9Y490 1-446) (domain or fragment)

binding [3]: no binding
Substance: His-tagged talin2(1-449) S339C (from UniProt Q9Y4G6 1-449) (domain or fragment)

binding [4]: no binding
Substance: His-tagged talin2(1-449) WT (from UniProt Q9Y4G6 1-449) (domain or fragment)
